Where two headings read alike, the source gives them in different places. These are yes or no findings as the source states them, for the method shown. Binding seen in cells or lysates may run through a third protein. A yes stands for co-enrichment or nearness to the bait. Other partners may have been found. For part of these data: Where a sequence is shown, tags or fusion partners need not be part of it.

Protein sequences, listed by entry. Tags and fused reporters are not part of them.
UniProt Q9D752: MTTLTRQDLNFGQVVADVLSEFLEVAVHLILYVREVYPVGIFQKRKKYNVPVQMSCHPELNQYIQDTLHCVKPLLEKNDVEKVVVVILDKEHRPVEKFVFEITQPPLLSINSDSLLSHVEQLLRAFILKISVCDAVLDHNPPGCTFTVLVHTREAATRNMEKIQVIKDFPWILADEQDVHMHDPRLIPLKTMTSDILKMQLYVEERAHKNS

Our source for the binding values is publication PMC11753365.

Common to all, as to test: affinity purification with mass spectrometry; TwinStrep–HA–SHLD1 or TwinStrep–HA–SHLD3 captured on MagStrep-XT beads from CH12-F3 lysates (benzonase lysis buffer, second incubation at 450 mM KCl), eluted with biotin, LC–MS/MS with label-free quantitation against a beads-only control; cells mock-treated or irradiated (10 Gy, 1 h recovery); two independent experiments
The target in assay [1] is T1, TwinStrep–HA–SHLD1 (UniProt Q9D112).
T1 sequence: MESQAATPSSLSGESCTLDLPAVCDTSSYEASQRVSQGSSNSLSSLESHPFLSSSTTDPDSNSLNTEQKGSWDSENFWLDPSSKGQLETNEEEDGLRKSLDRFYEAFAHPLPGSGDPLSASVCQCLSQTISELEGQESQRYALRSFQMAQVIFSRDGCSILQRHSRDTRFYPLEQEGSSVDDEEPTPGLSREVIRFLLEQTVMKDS

The target of the next assay is TwinStrep–HA–SHLD3.
The target in assay [2] is T2, TwinStrep–HA–SHLD1, Q9D112.
T2 chain: T1 sequence
As to conditions: remark: other sources report otherwise.

In assay [3] the target is T1, TwinStrep–HA–SHLD1. This is another data set of the same source.

Consider “Rev7 (MAD2L2) (from UniProt Q9D752 1-211)”, for which the binding entry with TwinStrep–HA–SHLD1 [1] is on record as “binds”.

B1: Shld1 (C20orf196), endogenous (protein, UniProt Q9D112 1-206)
chain: T1 sequence
In the case of B1, in the assay with TwinStrep–HA–SHLD3, the binding result is reported as “binds”.

B2: Stn1 (protein, UniProt Q8K2X3 1-378)
chain: MPQPCLLMECESSPREEEIPPLFWGLDPVFLAFAKLYIKDILEMKESQQVPGTYFYNGHPIRRVDIMGAVISVKERETFYSYGVDDATGVINCVCWKKLSNAESSSDPAILSTARELSMTSQLKKLQETIEQKTRIGIGDIIRVRGSVRMFREEREICANIYYKVDDPVWNMQIARMLELPKLYQKVYDQPFRNPALQEEEALNNKDNLDLAGLTSLLSEKIKEFLQEKKMQSFYQQELETVESLQSLASRPVTHSTGSDQVELKDSGTSGVAQRVFKNALQLLQEKGLVFQRDSGSDKLYYVTTKDKDLQQKIYHIIKEDCQKPNHMEKGCHLLHILNCVHLNLRWDLSKAVLQRVLELLEDQSDIVSTADHYYAAF
Take B2: the binding result in the assay with TwinStrep–HA–SHLD3 is “binds”.

B3: Stn1, Q8K2X3 1-378 (protein)
chain: B2 chain
Regarding B3, the binding entry in assay [2] is “binds”.

B4: Shld2 (FAM35A) (protein, UniProt Q3UEN2 1-891)
chain: MSQGSQVHIFLGAPVAPLKTTVSQGTASLMSTANAWEKVRLFYKQHSLYLKAGDQEFKNLEDCQVPKGLGPPGLLSGDVLTTSVRRSAQVDEDFKHSASEAQSVKSQVNLSDMTSGQMCGLGDGVQHLPEEEKDQKLQCKNKKITDEQSKNQSDPCVRNFQRDLFALDLKCAAKLDLGCCTEQMSTGTKPEPTGHRERQSQESFSDTRCEPQSEGAVRKASDQRLSAEAEFLSVLTSSQRAFLAQGNDKGQDCINKSTVNMEAEPTGSQGVRRTEGDFSKPGGDFEEESENEQSQVYSLELFSPVCPESESSHSHINPGKNLENTSSQELFSNEENLPPNELCSSHPSTANRSWSCKDDSHHSKALSEVHQVSKKPRMDSNIREAAKAVPQRVMSELKDSKKISLIKNCDSKNQKYNCLVMVLTPCHVKEITIKSGPNSGSKVPLATIVVIDQSEIKKRVVLWRTAAFGALTVFLGDIILLTDVVLYEDQWIGETVLQSTFTSQLLNLGSYSYVQPEKYSNVIANVILQDLLTYVSTKHSYLKDLPQRQPQKMNTVEFVELEQLQPDILVHAVLRVVDVTVLTEALYSYRGQKQRKVVLTVEQAQGQHYVLVLWGPGAAWYTQLQRKKDSIWEFKYLFVQRNSILENLELHTTLWSSCECLFDDDTRAISFKTKFQKNTSSFVKISDLATHLEDKYSGVVLIKAKVSELVFSAAAAQKIALNARSTLQSIFSSLPSIVYAGCAHCGSELETDENRIYRQCLSCLPFVGKKIFYRPALMTIVDGRYNTCVHVGSKMMEQILLNISPDCLNRVIVPSSEVTYGMVASDLLHSLLAVSAEPCVLKIQSLFELDENSYPLQQDFSLLDFCPDSRKLWSPGLSLRAEGTGGIPGKE
As for B4, the binding entry with TwinStrep–HA–SHLD1 [3] and with TwinStrep–HA–SHLD3 was “binds” each time.

B5: Ctc1 (protein, UniProt Q5SUQ9 1-1212)
chain: MAACRAQPPTSEQAWLEAAQTFIQETLCPAGKEVDKELTRSVIACVKETWLSQGENQDLTLPFSYSFVSVQSLKTHQRLPCCSHLSWSQSAYQAWTRGGRPGDGVLPREQLILLGTLVDLLGDSEQECRSGSLYVRDNTGTLDCELIDLDLSWLGHLFLFPSWSYLPSAKRNSLGEGHLELWGTPVPVFPLTVSPGPLIPIPVLYPEKASHLLRYRKKSSIKEINLAGKLVHLSALIITQNKRYFIMTLGELAQAGSQVSIIVQIPAQMVWHRVLRPGRAYVLTKLQVTKTRIHLSCIWTTIPSSTLKPLRPGYVQELELDLEFSKADLKPPPQPTSSKDSRGQEGLVRASKVLHYLGTVTAVLHESAGLYILDGQLILCLAYQKIHGLRRVIRPGVCLELRDVHLLQAVGGATTKPVLALCLHGTVRLQGFSCLKPLTLPSSKVYGASLYEQLVWKCQLGLPLYLWAAKTLEDLIYKLCPHVLRCHQFLKQPSPGKPSLGLQLLAPSWDVLIPPGSPMRHAYSEILEEPHNCPLQKYTPLQTPYSFPTMLALAEEGQHRAWATFDPKAMLPLPEASHLTSCQLNRHLAWSWVCLPSCVFQPAQVLLGVLVASSRKGCLELRDLRGSLPCIPLTESSQPLIDPNLVGCLVRVEKFQLVVEREVRSSFPSWEEMGMARFIQKKQARVYVQFYLADALILPVPRPTFGSEPSQTASSCPEGPHLGQSRLFLLSHKEALMKRNFCLLPGDSSQPAKPTLSFHVSGTWLCGTQRKEGSGWSPPESLAVESKDQKVFLIFLGSSVRWFPFLYPNQVYRLVASGPSQTPVFETEGSAGTSRRPLELADCGSCLTVQEEWTLELGSSQDIPNVLEVPRTLPESSLAQLLGDNSPDSLVSFSAEILSRILCEPPLALRRMKPGNAGAIKTGVKLTVALEMDDCEYPPHLDIYIEDPQLPPQIGLLPGARVHFSQLEKRISRSNIVYCCFRSSTSVQVLSFPPETKASAPLPHIYLAELLQGDRPPFQATTSCHIVYVLSLQILWVCAHCTSICPQGKCSRRDPSCPSQRAVSQANIRLLVEDGTAEATVICRNHLVARALGLSPSEWSSILEHARGPGRVALQFTGLGGQTESASKTHEPLTLLLRTLCTSPFVLRPVKLSFALERRPTDISPREPSRLQQFQCGELPLLTRVNPRLRLVCLSLQEPELPNPPQASAASS
Consider B5, for which the binding entry in the assay with TwinStrep–HA–SHLD1 [3] and in the assay with TwinStrep–HA–SHLD3 was “binds” in each case.

B6: Shld3 (FLJ26957), endogenous (protein, UniProt Q9CZV2 1-255)
chain: MDSCRMTTEVILHYRPYENDPKQLAKIAENVIQDFPTHPLPRFIPWFPYDESKLPLKPERLPPVISEEAAESVKQYLAISEPGVKSQSYDCTVDLLEFQPSSKLQHFIQSHTVKEQTNAAHLDKNSGKEKQHKQRSWSVSLASSHCPEKIFPLSRKLQASLRTLHLHSFHRARWTLEYSVCNNQTLEDIWTKLNRLIRRDELPSCNATIQRQLGQIWVFCDIKCCEYVGNLLKERLSLIGKIDLFVHKYGVIFSM
On to B6, for which the binding result with TwinStrep–HA–SHLD1 [3] is reported as “binds”.
